Several values for one entry are separate records, joined by “and”; a condition that tells them apart may be missing. Identical values can stand only once. Hit rate of the full screen: of about 300,000 compounds, about 5,400 (1.8%) were called active. The inconclusive results got no clear call from the source; some entries with a clear call stand among them for comparison. Calls come from the whole dose curve; tested in HEK293 cells. Potencies beside an inconclusive call are fits to weak or partial responses and may not hold up. Residues, ends and D or L forms follow the SMILES beside them. *: point of attachment. Cbz = O=C(OCc1ccccc1)*; CH2Cl = ClC*
Assay: qHTS for inhibitors of binding or entry into cells for Marburg Virus
Details: Marburg virus pseudotyped entry inhibition, cell reporter; activity change, negative = inhibition: at 37.8 µM (top of the series) unless noted
% is set by controls: 0 for no effect and ±100 for the full control effect; potency is the fitted concentration of half-maximal effect.

Question: With `O=C(O)c1cccc(N=NN2CCOCC2)c1` as the molecule, how does the Potency read?
Answer: The Potency was inconclusive: 35.5 µM [activator, single point].

Question: Which Potency does the source give for `O=C1CN(C(=O)c2ccc(Br)o2)C(c2ccc(F)cc2)c2cc(Cl)ccc2N1` (stereo not given) here?
Answer: Its Potency is inconclusive: 12.6 µM [inhibitor, single point].

Question: For `CCN1CCN(CCn2c(=S)[nH]c3cc4c(cc3c2=O)OCO4)CC1`, which Potency is on record?
Answer: Its Potency is inconclusive: 0.517 µM [inhibitor, full curve, poor fit].

Question: With `O=C(c1ccco1)N1CCN(C2=NS(=O)(=O)c3ccccc32)CC1` as the molecule, how does the “activity change, negative = inhibition” value read?
Answer: The value was inactive: 12.9%.

Question: With `CCc1ccc(CN(C(=O)c2cc(=O)c3ccc(C)cc3o2)C2CCS(=O)(=O)C2)cc1` (stereo not given) as the molecule, how does the “activity change, negative = inhibition” value read?
Answer: Its value is inactive: -13.8% [at 46.1 µM].

Question: With `CC(C)CC(NC(=O)OCc1ccccc1)C(=O)NC(Cc1ccccc1)C(=O)CCl` (stereo not drawn) (Cbz-Leu-Phe-CH2Cl; configuration not given here) as the molecule, how does the Potency read?
Answer: The Potency was inconclusive: 17.8 µM [inhibitor, partial curve, poor fit].

Question: Which Potency does the source give for `COC(=O)c1ccc(C(=O)NN)cc1` here?
Answer: Its Potency is inconclusive: 0.282 µM [inhibitor, full curve, poor fit].

Question: Which Potency does the source give for `O=C(Cn1c(C(=O)N2CCN(C3CCCC3)CC2)cc2sccc21)c1ccccc1` here?
Answer: Its Potency is inconclusive: 29.1 µM [inhibitor, single point].

Question: For `Fc1ccc(C(c2nnnn2C2CCCC2)N2CCN(Cc3ccccc3)CC2)cc1` (stereo not given), which Potency is on record?
Answer: The Potency was inconclusive: 11.2 µM [inhibitor, partial curve, poor fit].

Question: With `O=C(NCC1CCCO1)c1ccc2[nH]c3c(c2c1)CCCC3` (stereo not given) as the molecule, how does the Potency read?
Answer: The Potency was inconclusive: 1.26 µM [activator, single point].

Question: Which “activity change, negative = inhibition” value does the source give for `S=c1[nH]ncn1/N=C/c1ccccc1` here?
Answer: The value was inactive: 0%.

Question: Which Potency does the source give for `CSCC(=O)NC1CCCc2c1cnn2-c1ccc(C)c(C)c1` (stereo not given) here?
Answer: Its Potency is inconclusive: 15.8 µM [inhibitor, single point].

Question: Which “activity change, negative = inhibition” value does the source give for `O=P(CCc1ccccc1)(c1ccccc1)c1ccccc1` here?
Answer: The value was inactive: -1.01% [at 46.1 µM].

Question: Which Potency does the source give for `Cc1cccc(CSc2ccc3nnc(-c4ccccn4)n3n2)c1` here?
Answer: The Potency was inconclusive: 1.26 µM [inhibitor, single point].

Question: With `CC1=C(CC/C(C)=N/NC(N)=S)C(C)(C)CCC1` as the molecule, how does the Potency read?
Answer: The Potency was active: 20.6 µM.

Question: Which Potency does the source give for `COC(=O)C1=C[C@@H]([C@@H](C)[C@H](OC)c2ccccc2Br)[C@@H]2OCC[C@H]12` here?
Answer: Its Potency is inconclusive: 1.5 µM [inhibitor, partial curve, poor fit] and inconclusive: 29.9 nM [activator, full curve, poor fit].

Question: With `C#CC[N+]1(CC#Cc2ccc(C#CC[N+]3(CC#C)CCOCC3)cc2)CCOCC1` as the molecule, how does the “activity change, negative = inhibition” value read?
Answer: Its value is inactive: 21.4%.

Question: For `Cc1ccccc1NCC(=O)N/N=C/C(Br)=C/c1ccccc1`, which Potency is on record?
Answer: The Potency was inconclusive: 16.4 µM [inhibitor, single point].

Question: For `COc1ccc(C(=O)c2nc3c(n2O)CCCC3)cc1OC`, which Potency is on record?
Answer: Its Potency is inconclusive: 0.891 µM [activator, full curve, poor fit].

Question: Which Potency does the source give for `COc1ccc(C(=O)N/N=C(\C)c2ccccn2)cc1OC` here?
Answer: The Potency was active: 6.31 µM.

Question: Which Potency does the source give for `COc1cccc(-c2nc3ccccc3s2)c1O` here?
Answer: The Potency was inconclusive: 0.562 µM [activator, full curve, poor fit].

Question: For `CC(C)c1cc(C(C)C)c(S(=O)(=O)N2CCNCC2)c(C(C)C)c1`, which Potency is on record?
Answer: Its Potency is active: 10 µM.

Question: With `Cc1cc(-c2ccccc2)nn1-c1nc2c(c(=O)[nH]c(=O)n2C)n1C` as the molecule, how does the Potency read?
Answer: Its Potency is inconclusive: 7.08 µM [activator, partial curve].

Question: For `CCN(CC)C(=O)COc1coc(CN2CCN(c3cccc(Cl)c3)CC2)cc1=O`, which Potency is on record?
Answer: The Potency was inconclusive: 0.562 µM [activator, full curve, poor fit].

Question: Which “activity change, negative = inhibition” value does the source give for `CN(CC(=O)Nc1ccc(C(N)=O)cc1)S(=O)(=O)c1ccc2c(c1)OCCO2` here?
Answer: Its value is inactive: 8.9% [at 46.1 µM].

Question: With `Cc1ccnc(NS(=O)(=O)c2ccc(NC(=O)Cc3ccccc3)cc2)n1` as the molecule, how does the Potency read?
Answer: Its Potency is inconclusive: 7.08 µM [activator, partial curve, poor fit].

Question: For `O=C(Cc1ccc(Cl)cc1Cl)OCC(=O)c1ccc[nH]1`, which Potency is on record?
Answer: The Potency was inconclusive: 3.26 µM [inhibitor, single point].

Question: For `COC(=O)C(C(=O)OC)[C@@H]1O[C@@]23COC=C[C@]2(C)[C@@H]3c2ccccc21`, which Potency is on record?
Answer: Its Potency is inconclusive: 2.99 µM [inhibitor, single point].

Question: With `COc1ccc(/C(C)=N\NC(=O)c2ccc(-c3ccccc3)cc2)c(F)c1` as the molecule, how does the Potency read?
Answer: Its Potency is inconclusive: 3.16 µM [inhibitor, single point].

Question: With `COc1ccccc1C(CNC(=O)c1cccc(S(=O)(=O)Nc2ccc(C)cc2)c1)N1CCCC1` (stereo not given) as the molecule, how does the Potency read?
Answer: The Potency was inconclusive: 12.6 µM [inhibitor, partial curve, poor fit].

Question: With `O=C(O)Cc1csc(-c2cccc(Oc3ccccc3)c2)n1` as the molecule, how does the Potency read?
Answer: The Potency was inconclusive: 32.6 µM [inhibitor, partial curve, poor fit].

Question: For `NC(=O)c1nsc(C(=O)N(c2ccccc2)C(C(=O)NCc2ccc(F)cc2)c2ccc(O)cc2)c1N` (stereo not given), which Potency is on record?
Answer: Its Potency is inconclusive: 11.2 µM [inhibitor, partial curve, poor fit].

Question: Which Potency does the source give for `CCOC(=O)c1ccc(Nc2ncnc3ccc(C)cc23)cc1` here?
Answer: The Potency was inconclusive: 3.16 µM [inhibitor, single point].

Question: For `O=C(COc1ccc(Cl)cc1)N/N=C/c1cccc2cccnc12`, which Potency is on record?
Answer: Its Potency is inconclusive: 35.5 µM [inhibitor, single point].

Question: With `CCn1c(CNc2nc3ccccc3n2C(C)C)nc2ccccc21` as the molecule, how does the Potency read?
Answer: The Potency was inconclusive: 35.5 µM [inhibitor, single point].

Question: Which Potency does the source give for `O=C(Nc1cccc(S(=O)(=O)N2CCCCC2)c1)c1cc([N+](=O)[O-])ccc1N1CCOCC1` here?
Answer: Its Potency is inconclusive: 4.47 µM [inhibitor, full curve, poor fit].

Question: Which “activity change, negative = inhibition” value does the source give for `COc1ccc(NC(=O)/C(C#N)=C/c2ncc([N+](=O)[O-])n2C)c(OC)c1` here?
Answer: Its value is inactive: -5.92% [at 46.1 µM].

Question: For `CC1(C)Cc2c(c(N3CCOCC3)nc3sc4c(NCc5ccccc5)nnnc4c23)CS1`, which “activity change, negative = inhibition” value is on record?
Answer: The value was inactive: -10.8%.

Question: Which Potency does the source give for `O=C(NCCc1ccc(F)cc1)c1ccncc1` here?
Answer: The Potency was inconclusive: 17.8 µM [activator, partial curve, poor fit].

Question: Which Potency does the source give for `Cc1cc([N+](=O)[O-])nn1CCCC(=O)Nc1cc(Oc2ccccc2)cc([N+](=O)[O-])c1` here?
Answer: The Potency was inconclusive: 8.91 µM [inhibitor, partial curve, poor fit].

Question: Which Potency does the source give for `COCc1nnc(NC(=O)c2cc(C(=O)OC)cc([N+](=O)[O-])c2)s1` here?
Answer: Its Potency is inconclusive: 20 µM [activator, single point].

Question: With `Cc1sc2ccccc2c1CC1=NCCN1` as the molecule, how does the Potency read?
Answer: Its Potency is inconclusive: 8.91 µM [inhibitor, partial curve].

Question: For `CCc1ccc2[nH]c3nc(N/N=C/c4cccc(O)c4)nnc3c2c1`, which Potency is on record?
Answer: Its Potency is inconclusive: 35.5 µM [inhibitor, single point].

Question: Which “activity change, negative = inhibition” value does the source give for `C/C(=N/NS(=O)(=O)c1cc(C)ccc1C)c1ccc2c(c1)OCO2` here?
Answer: Its value is inactive: -5.83% [at 46.1 µM].

Question: Which Potency does the source give for `Cc1cc(-c2ccccc2)c(C#N)c(N)n1` here?
Answer: Its Potency is inconclusive: 3.16 µM [inhibitor, partial curve, poor fit].

Question: Which “activity change, negative = inhibition” value does the source give for `COc1ccc(NC(=O)c2ccc(NC(=O)c3ccco3)cc2)c(OC)c1` here?
Answer: Its value is inactive: -11.3% [at 46.1 µM].

Question: For `CCOC(=O)C1=C(C)NC(=S)N(C(C)=O)C1c1ccc(OC)c(OC)c1` (stereo not given), which Potency is on record?
Answer: Its Potency is inconclusive: 0.562 µM [inhibitor, full curve, poor fit].

Question: For `CC1=Nc2cc(C(=O)NC(C)C)ccc2Sc2ccc(C)cc21`, which Potency is on record?
Answer: The Potency was inconclusive: 6.31 µM [inhibitor, partial curve, poor fit].

Question: Which Potency does the source give for `Cc1ccc(-n2c(SCC(N)=O)nc3c(c2=O)C2(CCCC2)Cc2ccccc2-3)cc1` here?
Answer: The Potency was inconclusive: 35.5 µM [inhibitor, single point].

Question: With `CCOC(=O)CC(=O)CSc1nc(CC)c(C)cc1C#N` as the molecule, how does the Potency read?
Answer: The Potency was inconclusive: 5.01 µM [inhibitor, single point].

Question: With `O=C1/C(=C/c2ccco2)CCc2ccccc21` as the molecule, how does the Potency read?
Answer: Its Potency is inconclusive: 2.82 µM [activator, partial curve, poor fit].

Question: For `O=C(c1ccc(COc2ccccc2Cl)o1)N1CCOCC1`, which Potency is on record?
Answer: Its Potency is inconclusive: 10 µM [activator, single point].

Question: For `CC(C)CCNC(=O)C(c1cccnc1)N(CCc1ccccc1)C(=O)Cn1nnc2ccccc21` (stereo not given), which Potency is on record?
Answer: The Potency was inconclusive: 3.98 µM [inhibitor, single point].

Question: For `Cc1cc(NC(=O)CSc2ccccc2)no1`, which Potency is on record?
Answer: The Potency was inconclusive: 6.31 µM [inhibitor, single point].

Question: For `CCOc1ccccc1C(=O)N(Cc1cccs1)C1CCS(=O)(=O)C1` (stereo not given), which Potency is on record?
Answer: The Potency was inconclusive: 5.62 µM [inhibitor, full curve, poor fit].

Question: Which Potency does the source give for `C#CCOc1nc(Nc2cccc([N+](=O)[O-])c2)nc(OCC#C)n1` here?
Answer: The Potency was inconclusive: 20.6 µM [inhibitor, partial curve, poor fit].

Question: For `Cc1nc(=S)c2ccccc2[nH]1`, which “activity change, negative = inhibition” value is on record?
Answer: Its value is inactive: 10.1%.

Question: For `CC(C)(C)C(=O)Nc1ccccc1-c1nc2ccccc2[nH]c1=O`, which “activity change, negative = inhibition” value is on record?
Answer: Its value is inactive: 10.7% [at 46.1 µM].

Question: With `CCc1c(C)[nH]c2ccc(OC)cc2c1=S` as the molecule, how does the “activity change, negative = inhibition” value read?
Answer: Its value is inactive: -17.2% [at 46.1 µM].

Question: With `Cc1ccc(S(=O)(=O)N(C)c2cc(S(=O)(=O)N3CCC(C)CC3)c(C)cc2C)cc1` as the molecule, how does the Potency read?
Answer: The Potency was inconclusive: 20 µM [inhibitor, partial curve, poor fit].

Question: For `COc1ccc(S(=O)(=O)c2nnn(-c3ccc(C)c(Cl)c3)c2C)cc1`, which “activity change, negative = inhibition” value is on record?
Answer: The value was inactive: -15.4% [at 46.1 µM].

Question: With `C#CCn1c(=NC(=O)CN2C(=O)CCC2=O)sc2cc(S(N)(=O)=O)ccc21` as the molecule, how does the Potency read?
Answer: Its Potency is inconclusive: 31.6 µM [activator, single point].

Question: With `CCOc1ccc(C(=O)NC(=S)Nc2cccnc2)cc1` as the molecule, how does the Potency read?
Answer: The Potency was inconclusive: 1.3 µM [activator, partial curve].

Question: Which Potency does the source give for `CCOC(=O)C1CCCN(Cc2cn[nH]c2-c2ccc(F)cc2F)C1` (stereo not given) here?
Answer: Its Potency is inconclusive: 4.47 µM [inhibitor, partial curve, poor fit].

Question: With `C=C(C)c1cccc(C(C)(C)NC(=O)NC(c2ccccc2)c2ccc(OC)cc2)c1` (stereo not given) as the molecule, how does the Potency read?
Answer: Its Potency is inconclusive: 0.112 µM [activator, full curve, poor fit].

Source: PubChem BioAssay AID540276 (National Center for Advancing Translational Sciences (NCATS), 2011)
